{"source": "PubChem BioAssay AID256", "about": "(DTP/NCI, 2004)", "system": "CD2F1 mice, L1210 leukemia ip, survival T/C", "assay": "NCI In Vivo Anticancer Drug Screen. Data for tumor model L1210 Leukemia (intraperitoneal) in CD2F1 (CDF1) mice", "conditions": "higher T/C = longer survival", "outline": "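Transplantable tumor in mice; compound-treated vs vehicle-treated groups. Read-out = treated/control ratio of the measured endpoint.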", "key": {"[1]": {"conditions": "T/C endpoint: mean survival time, dose: 400.0 mg/kg/injection, schedule: Q04DX003 (ip), vehicle: saline with Tween-80"}, "[2]": {"conditions": "T/C endpoint: mean survival time, dose: 100.0 mg/kg/injection, schedule: Q04DX003 (ip), vehicle: dextrose"}, "[3]": {"conditions": "T/C endpoint: mean survival time, dose: 100.0 mg/kg/injection, schedule: Q01DX009 (ip), vehicle: saline with Tween-80"}, "[4]": {"conditions": "T/C endpoint: mean survival time, dose: 200.0 mg/kg/injection, schedule: Q01DX009 (ip), vehicle: saline with Tween-80"}, "[5]": {"conditions": "T/C endpoint: mean survival time, dose: 400.0 mg/kg/injection, schedule: Q01DX009 (ip), vehicle: saline with Tween-80"}}, "note": "The list shows only some results of the screen, not a fair sample: it gathers tests that were run many times, whatever their T/C, doses with no T/C, and many T/C values between a quarter and a half above the control. Other doses and runs of a compound stand elsewhere. T/C is the treated group as % of the vehicle group. Some entries give survivors of the animals treated and no T/C: the source holds a T/C of zero for them, seemingly a mark for toxic or unscored doses. Some doses without a T/C left all or most animals alive at the check, yet need not have been tolerated: the source hardly ever lists a survival T/C far under the control, and the zero likely stands for such cases as well. Survivors were counted at the toxicity check, usually on the fifth day, unless a day is given; later deaths do not show. Schedule codes are those of the source, read here as Q, the interval in days (D) or hours (H), X, the number of doses. Some entries were tested several times; the results are listed from low to high. Where survival is the endpoint, the PubChem record calls one and a half times the control and up active, and a quarter to a half above the control has no call in these data; cut-offs in other NCI protocols can differ.", "data": [{"smiles": "O/N=C\\c1cccc2ccccc12", "values": [{"measurement": "survivor count", "setting": "[1]", "value": "3 of 6"}]}, {"smiles": "NC1CCCCC1N.O=C1C=C/C(=C(/c2ccc(O)c(Br)c2)c2ccccc2S(=O)(=O)[O-])C=C1Br.O=C1C=C/C(=C(/c2ccc(O)c(Br)c2)c2ccccc2S(=O)(=O)[O-])C=C1Br.[Pt+4]", "values": [{"measurement": "survivor count", "setting": "T/C endpoint: median survival time, dose: 50.0 mg/kg/injection, schedule: Q04DX003 (ip), vehicle: saline", "value": "3 of 6"}, {"measurement": "survivor count", "setting": "T/C endpoint: median survival time, dose: 100.0 mg/kg/injection, schedule: Q04DX003 (ip), vehicle: saline", "value": "3 of 6"}, {"measurement": "survivor count", "setting": "T/C endpoint: median survival time, dose: 200.0 mg/kg/injection, schedule: Q04DX003 (ip), vehicle: saline", "value": "0 of 6"}]}, {"smiles": "O/N=C1\\CCCCC\\C1=N/O.O/N=C1\\CCCCC\\C1=N/O.[Pt]", "values": [{"measurement": "survivor count", "setting": "[2]", "value": "3 of 6"}, {"measurement": "survivor count", "setting": "T/C endpoint: mean survival time, dose: 400.0 mg/kg/injection, schedule: Q04DX003 (ip), vehicle: dextrose", "value": "5 of 6"}]}, {"smiles": "NC(=S)c1ccc(OCCCc2ccccc2)cc1", "values": [{"measurement": "survivor count", "setting": "[3]", "value": "0 of 6 and 1 of 6"}, {"measurement": "survivor count", "setting": "[4]", "value": "0 of 6"}, {"measurement": "survivor count", "setting": "[5]", "value": "0 of 6"}]}, {"smiles": "Clc1ccc(Br)c2c1CCC2", "values": [{"measurement": "survivor count", "setting": "T/C endpoint: mean survival time, dose: 400.0 mg/kg/injection, schedule: Q04DX003 (ip), vehicle: acetone", "value": "2 of 6"}]}, {"smiles": "CC12CCCCC1=C/C(=N/NC(N)=O)CC2", "note": "(configuration not stated)", "values": [{"measurement": "survivor count", "setting": "[3]", "value": "4 of 6"}, {"measurement": "survivor count", "setting": "[4]", "value": "0 of 6"}, {"measurement": "survivor count", "setting": "[5]", "value": "0 of 6"}]}, {"smiles": "O=C1[C@@H]2C3C=CC([C@H]4C(=O)N(CO)C(=O)[C@@H]34)[C@@H]2C(=O)N1CO", "values": [{"measurement": "T/C", "setting": "T/C endpoint: median survival time, dose: 100.0 mg/kg/injection, schedule: Q01DX005 (ip), vehicle: Klucel (hydroxypropylcellulose) (HPC)", "value": "137 % of control"}, {"measurement": "survivor count", "setting": "T/C endpoint: median survival time, dose: 400.0 mg/kg/injection, schedule: Q01DX005 (ip), vehicle: Klucel (hydroxypropylcellulose) (HPC)", "value": "0 of 6"}]}, {"smiles": "O=[N+]([O-])c1ccc(S(=O)Cc2ccccc2)c([N+](=O)[O-])c1", "note": "(configuration not stated)", "values": [{"measurement": "survivor count", "setting": "T/C endpoint: mean survival time, dose: 150.0 mg/kg/injection, schedule: Q01DX001 (ip), vehicle: other", "value": "1 of 6"}, {"measurement": "survivor count", "setting": "T/C endpoint: mean survival time, dose: 300.0 mg/kg/injection, schedule: Q01DX001 (ip), vehicle: other", "value": "0 of 6"}]}, {"smiles": "Cc1nnn2ccccc12", "values": [{"measurement": "survivor count", "setting": "T/C endpoint: mean survival time, dose: 200.0 mg/kg/injection, schedule: Q01DX001 (ip), vehicle: saline", "value": "0 of 3"}, {"measurement": "survivor count", "setting": "T/C endpoint: mean survival time, dose: 400.0 mg/kg/injection, schedule: Q01DX001 (ip), vehicle: saline", "value": "0 of 3"}]}, {"smiles": "CC1=C2C(=O)[C@H]3[C@@H](CC=C4C[C@@H](O)CC[C@@]43C)[C@@H]2CC[C@]12O[C@@H]1C[C@H](C)CN[C@H]1[C@H]2C", "values": [{"measurement": "survivor count", "setting": "T/C endpoint: mean survival time, dose: 100.0 mg/kg/injection, schedule: Q01DX001 (ip), vehicle: saline with Tween-80", "value": "6 of 6"}]}, {"smiles": "[Cl][Pt+2][Cl].[NH-]Cc1ccccc1C[NH-]", "values": [{"measurement": "survivor count", "setting": "[2]", "value": "6 of 6"}]}, {"smiles": "CC(=O)Nc1ccc(C(=O)CCl)cc1", "values": [{"measurement": "survivor count", "setting": "T/C endpoint: mean survival time, dose: 100.0 mg/kg/injection, schedule: Q01DX009 (ip), vehicle: saline", "value": "0 of 6"}, {"measurement": "survivor count", "setting": "T/C endpoint: mean survival time, dose: 200.0 mg/kg/injection, schedule: Q01DX009 (ip), vehicle: saline", "value": "0 of 6"}, {"measurement": "survivor count", "setting": "T/C endpoint: mean survival time, dose: 200.0 mg/kg/injection, schedule: Q04DX003 (ip), vehicle: saline with Tween-80", "value": "0 of 6"}, {"measurement": "survivor count", "setting": "T/C endpoint: mean survival time, dose: 400.0 mg/kg/injection, schedule: Q01DX009 (ip), vehicle: saline", "value": "0 of 6"}, {"measurement": "survivor count", "setting": "[1]", "value": "0 of 6"}]}, {"smiles": "c1ccc(CC23CCCCC2N3)cc1", "note": "(configuration not stated)", "values": [{"measurement": "survivor count", "setting": "T/C endpoint: mean survival time, dose: 400.0 mg/kg/injection, schedule: Q01DX001 (ip), vehicle: saline sonified", "value": "0 of 6"}]}, {"smiles": "CC(C)(C)OC(=O)NCCCCC(N)C(=O)OC(C)(C)C", "note": "(configuration not stated)", "values": [{"measurement": "survivor count", "setting": "T/C endpoint: mean survival time, dose: 400.0 mg/kg/injection, schedule: Q04DX003 (ip), vehicle: saline", "value": "0 of 6"}]}, {"smiles": "[CH3][Pb]([CH3])([CH3])[NH]C#N", "values": [{"measurement": "survivor count", "setting": "T/C endpoint: mean survival time, dose: 10.0 mg/kg/injection, schedule: Q01DX009 (ip), vehicle: saline", "value": "5 of 6"}]}, {"smiles": "CN(C)[C@@H]1C(=O)C(C(=O)NCNc2nc3n[nH]nc3c(=O)[nH]2)=C(O)[C@@]2(O)C(=O)C3=C(O)c4c(O)cccc4[C@@](C)(O)[C@H]3C[C@@H]12", "values": [{"measurement": "T/C", "setting": "[4]", "value": "131 % of control"}]}, {"smiles": "[Cl][Pt+2][Cl].[NH-]c1cc(Cl)c(Cl)c(Cl)c1[NH-]", "values": [{"measurement": "survivor count", "setting": "T/C endpoint: mean survival time, dose: 80.0 mg/kg/injection, schedule: Q01DX009 (ip), vehicle: saline with Tween-80", "value": "6 of 8"}]}, {"smiles": "CC1(C)COCN1COC1CCCCC1", "values": [{"measurement": "survivor count", "setting": "T/C endpoint: mean survival time, dose: 400.0 mg/kg/injection, schedule: Q01DX009 (ip), vehicle: suspension in saline", "value": "0 of 10"}]}]}
